The target in the assay is T1, human δ-catenin with a C-terminus HA tag (δ-catenin-HA), wild type (human) (UniProt Q9UQB3).
T1 sequence: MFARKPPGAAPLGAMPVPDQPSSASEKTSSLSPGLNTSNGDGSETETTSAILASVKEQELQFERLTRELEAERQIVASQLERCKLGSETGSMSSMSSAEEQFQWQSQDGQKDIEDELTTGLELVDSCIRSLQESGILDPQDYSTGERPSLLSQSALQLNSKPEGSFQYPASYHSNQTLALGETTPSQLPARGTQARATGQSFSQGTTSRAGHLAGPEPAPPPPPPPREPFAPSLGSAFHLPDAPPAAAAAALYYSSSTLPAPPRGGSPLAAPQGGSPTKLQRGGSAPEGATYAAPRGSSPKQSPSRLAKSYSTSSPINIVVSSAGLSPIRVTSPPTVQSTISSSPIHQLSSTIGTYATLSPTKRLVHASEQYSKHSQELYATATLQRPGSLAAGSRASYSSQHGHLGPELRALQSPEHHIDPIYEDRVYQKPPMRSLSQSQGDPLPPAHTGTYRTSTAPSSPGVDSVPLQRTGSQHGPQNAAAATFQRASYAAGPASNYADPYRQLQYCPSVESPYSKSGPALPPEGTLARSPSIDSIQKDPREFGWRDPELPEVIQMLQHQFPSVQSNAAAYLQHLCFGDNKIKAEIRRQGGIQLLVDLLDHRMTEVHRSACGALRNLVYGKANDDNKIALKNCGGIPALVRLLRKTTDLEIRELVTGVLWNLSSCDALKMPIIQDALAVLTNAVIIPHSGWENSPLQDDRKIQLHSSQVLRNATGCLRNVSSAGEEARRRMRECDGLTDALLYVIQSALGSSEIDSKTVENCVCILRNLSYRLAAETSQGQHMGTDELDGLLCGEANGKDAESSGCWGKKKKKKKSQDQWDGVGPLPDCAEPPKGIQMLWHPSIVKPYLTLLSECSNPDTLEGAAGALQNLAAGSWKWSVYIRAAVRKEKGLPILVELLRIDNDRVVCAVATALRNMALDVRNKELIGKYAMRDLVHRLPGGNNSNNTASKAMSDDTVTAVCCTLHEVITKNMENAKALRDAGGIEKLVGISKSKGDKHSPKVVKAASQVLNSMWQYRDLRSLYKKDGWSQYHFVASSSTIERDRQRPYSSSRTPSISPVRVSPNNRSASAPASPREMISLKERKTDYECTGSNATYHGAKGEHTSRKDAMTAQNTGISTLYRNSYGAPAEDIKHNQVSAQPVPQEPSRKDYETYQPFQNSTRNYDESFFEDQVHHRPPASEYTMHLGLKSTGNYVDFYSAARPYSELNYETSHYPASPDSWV
The experiment in a line: co-IP; HEK293T cells co-transfected with δ-catenin-HA and GFP-tagged N-cadherin; lysate (25 mM Hepes, 150 mM KCl, 1.5 mM MgCl2, 10% glycerol, 0.5% NP-40) incubated with anti-HA magnetic beads 2 h at 4°C; blot with anti-GFP and anti-HA.

Amino acid sequences for entries named in this document (tags omitted). A change or cut given only in a name is not applied to a line headed by its entry.
UniProt P15116: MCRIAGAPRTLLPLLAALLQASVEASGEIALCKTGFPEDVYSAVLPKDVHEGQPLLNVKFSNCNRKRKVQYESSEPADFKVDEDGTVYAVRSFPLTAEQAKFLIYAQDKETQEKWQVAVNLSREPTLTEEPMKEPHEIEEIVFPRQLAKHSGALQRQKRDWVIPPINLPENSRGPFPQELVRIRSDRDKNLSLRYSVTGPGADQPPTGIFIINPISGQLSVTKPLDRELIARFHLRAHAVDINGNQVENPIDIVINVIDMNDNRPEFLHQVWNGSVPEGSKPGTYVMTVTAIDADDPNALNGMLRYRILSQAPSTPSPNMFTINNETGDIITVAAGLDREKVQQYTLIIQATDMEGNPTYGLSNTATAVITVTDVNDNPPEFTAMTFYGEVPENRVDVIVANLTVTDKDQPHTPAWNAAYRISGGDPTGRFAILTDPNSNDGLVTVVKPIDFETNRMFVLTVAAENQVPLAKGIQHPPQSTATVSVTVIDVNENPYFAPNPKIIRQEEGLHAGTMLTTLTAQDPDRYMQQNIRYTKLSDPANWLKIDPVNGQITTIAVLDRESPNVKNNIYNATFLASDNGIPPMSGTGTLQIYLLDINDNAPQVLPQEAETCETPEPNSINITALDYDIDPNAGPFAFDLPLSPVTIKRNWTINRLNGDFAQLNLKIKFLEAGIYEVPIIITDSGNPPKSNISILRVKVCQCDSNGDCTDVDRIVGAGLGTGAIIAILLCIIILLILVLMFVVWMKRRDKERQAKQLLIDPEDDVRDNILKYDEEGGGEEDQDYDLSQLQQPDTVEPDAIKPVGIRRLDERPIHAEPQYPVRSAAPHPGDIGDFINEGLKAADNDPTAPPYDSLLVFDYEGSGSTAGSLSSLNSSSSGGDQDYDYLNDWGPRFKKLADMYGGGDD

Results are given in words; binding and its absence hold for the method and conditions named. In cells and extracts the contact can be indirect. Tags and fused reporters may be left off the sequences shown.

Take “N-cadherinΔJMD-GFP (from UniProt P15116)”: the binding result is “no binding”.

Values taken from publication PMC10501387.
